These are yes or no findings as the source states them, for the method shown. Binding seen in cells or lysates may run through a third protein. These calls come from enrichment with a bait or labelling near it, and not all partners need be listed. For some assays here: Sequences can lack the tags named with a protein.

Assay [1] concerns the target VelB-GFP (A. nidulans Velvet-like B, full length, fused to GFP) (A. nidulans) (UniProt C8VTS4). Kind of assay: affinity purification with mass spectrometry; GFP pull-down (GFP-Trap_A beads) of VelB-GFP or VelB^ΔIDD-GFP from vegetative A. nidulans mycelium (24 h, 37°C), intact veA; LC-MS/MS, LFQ; three biological replicates.
The target of assay [2] is VelB^ΔIDD-GFP (A. nidulans VelB lacking the intrinsically disordered domain, fused to GFP) (A. nidulans) (UniProt C8VTS4). The description is as above.
Assay [3] concerns the target T1, VelB-GFP (A. nidulans Velvet-like B, full length, fused to GFP) (A. nidulans), C8VTS4.
T1 chain: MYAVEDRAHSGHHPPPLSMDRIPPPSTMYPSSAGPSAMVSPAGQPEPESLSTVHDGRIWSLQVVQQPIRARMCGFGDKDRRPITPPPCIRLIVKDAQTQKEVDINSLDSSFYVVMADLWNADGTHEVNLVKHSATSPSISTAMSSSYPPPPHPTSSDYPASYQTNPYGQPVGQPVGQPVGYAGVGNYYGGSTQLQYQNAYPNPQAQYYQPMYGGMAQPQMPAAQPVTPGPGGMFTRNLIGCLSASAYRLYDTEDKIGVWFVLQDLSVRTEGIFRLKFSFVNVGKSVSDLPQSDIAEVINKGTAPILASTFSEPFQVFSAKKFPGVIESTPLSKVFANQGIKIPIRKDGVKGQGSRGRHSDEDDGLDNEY
Description: affinity purification with mass spectrometry. Particulars: remark: other sources report otherwise.

B1: VeA (Velvet A), endogenous, A. nidulans (protein, UniProt C8VTV4 1-573)
chain: MATLAAPPPPLGESGNSNSVSRITREGKKITYKLNIMQQPKRARACGQGSKSHTDRRPVDPPPVIELNIFESDPHDDSNKTDITFVYNANFFLFATLEPERPIATGKLMTNQGSPVLTGVPVAGVAYLDKPNRAGYFIFPDLSVRNEGSYRFSFHLFEQIKDPKDATEGTQPMPSPVPGKLSSPQEFLEFRLEVISNPFIVYSAKKFPGLTTSTPISRMIAEQGCRVRIRRDVRMRRRGDKRTEDYDYDNERGYNNRRPDQYAGSDAYANAPERPRSTSISTNMDPYSYPSRRPSAVEYGQPIAQPYQRPMASTPAPSSTPIPAPIPMPGPVALPPSTPSPASAHAPAPPSVPLAAPPPLHTPSYQSHLSFGATQTQYPAPQLSHIPQQTTTPTHPYSPRSSISHSRNQSISEYEPSMGYPGSQTRLSAERPSYGQPSQTTSLPPLRHSLEPSVNSRSKTPSNMITSLPPIQSLSELPSTTSQPSSAIGSSPANEPGPRLWETNSMLSKRTYEESFGHDDRPLYNGMRPDSESYPGGMQRRPSYERSSLLDGPDQMAYKRANGRMVSKPATMR
In the case of B1, the binding entry in assay [1] and in assay [2] was “binds” each time.

B2: catalase CatB, endogenous, A. nidulans (enzyme, UniProt P78619 16-722)
chain: VCPYMTGELGRRDTNPDATEATEEFLSEYYLDDTDSYLTTDVGGPIEDQQSLKAGARGSTLLEDFIFRQKIQRFDHERVPERAVHARGAGAHGVFTSYGDFSNITAASFLSAEGKETPVFVRFSTVAGSRGSSDLARDVHGFATRFYTDEGNFDIVGNNIPVFFIQDAIQFPDLIHAVKPKGDREIPQAATAHDAAWDFFSQQPSTLHTLLWAMAGHGIPRSFRHVDGFGVHTFRLVTEDGSTKLVKFHWKTLQGLASMVWEEAQQISGKNPDYMRQDLFESIEAGRYPEWELNVQIMDEEDQLRFGFDLFDPTKIVPEEYVPLTPLGKMTLNRNPRNYFAETEQVMFQPGHVVRGVDFTEDPLLQQGRLFSYLDTQLNRNGGPNFEQLPINQPRVAIHNNNRDGAGQMFIPLNPDAYSPNTLKGSTLKQANQTAGRGFFTAPDRTANGNLVRAKSSTFDDAWSQPRLFWNSLLPAEKQFVVNAIRFENANVKSDVVKNNVIVQLNRISNDLATRVAKAIGVDAPEPDNTYYHDNTTSNIGAFGHRLQSLAGLKIAVLASVDAEESFSAATALKAELSNDNLDVIVVAERFSNGVNQTYSASDAIQFDAVVVAPGAEKLFGAKSAANSSSTLYPAGRPLEILVDAFRFGKPVAALGSGSTAFDNAGINTAVEGVYVADAVDESFANNLEEGLTVFKFLDRFALDSDE
With B2, the binding entry in assay [1] and in assay [2] was “binds” throughout.

B3: LaeA (loss of the aflatoxin regulator expression A), endogenous, A. nidulans, C8VQG9 1-374 (protein)
chain: MFEMGPVGTRLPAMTSPAHNHYSYHSPTSSDRGRSRQNSDAMDIQSITEREPATRYAVAGGPAPWNRNGSPSMSPMYSNNSERNQFHEENGRTYHGFRRGMYFLPCDEQEQDRLDIFHKLFTVARVSESLIYAPHPTNGRFLDLGCGTGIWAIEVANKYPDAFVAGVDLAPIQPPNHPKNCEFYAPFDFEAPWAMGEDSWDLIHLQMGCGSVMGWPNLYRRIFAHLRPGAWFEQVEIDFEPRCDDRSLDGTALRHWYDCLKQATAETMRPIAHSSRDTIKDLQDAGFTEIDHQIVGLPLNPWHQDEHERKVARWYNLAVSESIENLSLAPFSRVYRWPLERIQQLAADVKSEAFNKEIHAYNILHIYQARKPLR
In the case of B3, the binding entry in assay [3] was “binds”.

Source of the values: article PMC12614781, “The VelB IDD promotes selective heterodimer formation of velvet proteins for fungal development” (Life Science Alliance, 2025).
